The nature of data set [1]: general procedure: Fmoc solid-phase peptide synthesis; Fmoc-Rink resin (4-(2',4'-dimethoxyphenyl-Fmoc-aminomethyl)-phenoxypolystyrene resin, Bachem D-2080; 0.47 mmol/g); HOBt (HOAt and DIPEA for Fmoc-Glu(2-phenylisopropyloxy)-OH). The conditions noted are these: whole synthesis, UV 214 and 254 nm, scale of the general procedure 0.10 mmol, hydrochloride.
Data set [2] in a line: general procedure: Fmoc solid-phase peptide synthesis; Rink amide polystyrene; HOBt (HOAt and DIPEA for Fmoc-Glu(2-phenylisopropyloxy)-OH). The note with it: whole synthesis, scale 0.10 mmol, hydrochloride.

For the substance “2-[2-(Hexadecanoylamino)ethoxy]ethoxyacetyl-Gly-Thr-Gln-His-Ser-Nle-c[Glu-Hyp-D-Phe-Arg-Trp-Lys]-NH2”, the “final HPLC purity” value in data set [1] came out at 98%. In data set [2], this substance showed an isolated mass of 36.2 mg and an isolated yield of 19%.

These data come from US20110098213 (published 2011).
